According to the supplement of paper PMC12823440, “Inhibitors supercharge kinase turnover through native proteolytic circuits” (Nature, 2025):
Where a name gives a salt, the structure may show the parent alone. The list shows a part of the results. Hit calls seldom repeat between salt and free forms of one compound.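 Kinases were expressed as nanoluciferase fusions in K562 cells and luminescence was read every 4 h between 2 and 18 h as percent of control, DMSO set to 100% and a positive control to 0%. A time point counts as decreased when the signal drops significantly (2 sigma). The hit call is the authors' own, does not follow from the count of time points alone, and its rule is not shown.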

molecular target: EGFR_G719S_T790M (UniProt P00533); test: kinase-Nluc reporter destabilization hit call (1 = scored as downregulated) (binary); higher = compound decreases kinase abundance; conditions: 10 µM; K562; 2-18 h

kinase-Nluc reporter destabilization hit call, inactive:
COc1cc2c(-c3cnn4cc(N5CCC(N6CCN(C)CC6)CC5)cnc34)ccnc2cc1F [ALK2-IN-4 (succinate)] 0, C#Cc1cccc(Nc2ncnc3cc(OCCOC)c(OCCO)cc23)c1 [Desmethyl Erlotinib] 0, N=C(N)NC(=O)c1nc(Cl)c(N)nc1N [Amiloride (hydrochloride)] 0, N#CC[C@H](C1CCCC1)n1cc(-c2ncnc3[nH]ccc23)cn1 [Ruxolitinib (phosphate)] 0, CC(=O)c1c(C)c2cnc(Nc3ccc(N4CCNCC4)cn3)nc2n(C2CCCC2)c1=O [Palbociclib (monohydrochloride)] 0, O=C(O)c1ccc2c(c1)nc(Nc1cccc(Cl)c1)c1ccncc12 [Silmitasertib (sodium salt)] 0, COc1ccnc(C[S+]([O-])c2nc3cc(-n4cccc4)ccc3[nH]2)c1C (stereo unspecified) [Ilaprazole (sodium)] 0, CC(C)NC[C@@H](C(=O)N1CCN(c2ncnc3c2[C@H](C)C[C@H]3O)CC1)c1ccc(Cl)cc1 [Ipatasertib (dihydrochloride)] 0, CC(=O)c1c(C)c2cnc(Nc3ccc(N4CCNCC4)cn3)nc2n(C2CCCC2)c1=O [Palbociclib (isethionate)] 0, O=C(c1ccc(F)c(F)c1Nc1ccc(I)cc1F)N1CC(O)([C@@H]2CCCCN2)C1 [Cobimetinib (hemifumarate)] 0, COC(=O)[C@H](CC(C)C)NC(=O)c1ccc(NC[C@@H](N)CS)cc1-c1cccc2ccccc12 0, N#CCNC(=O)c1ccc(-c2ccnc(Nc3ccc(N4CCOCC4)cc3)n2)cc1 [Momelotinib] 0, CC(=O)Nc1cccc(-n2c(=O)n(C3CC3)c(=O)c3c(Nc4ccc(I)cc4F)n(C)c(=O)c(C)c32)c1 [Trametinib] 0, O=C(Nc1cnn2ccc(N3CCC[C@@H]3c3cc(F)ccc3F)nc12)N1CC[C@H](O)C1 [Larotrectinib sulfate] 0, C#Cc1cccc(Nc2ncnc3cc4c(cc23)OCCOCCOCCO4)c1 [Icotinib (Hydrochloride)] 0, COc1cc2nccc(Oc3ccc(NC(=O)C4(C(=O)Nc5ccc(F)cc5)CC4)cc3)c2cc1OC [Cabozantinib (S-malate)] 0, N#CC[C@H](C1CCCC1)n1cc(-c2ncnc3[nH]ccc23)cn1 [Ruxolitinib] 0, CS(=O)(=O)N1CCN(Cc2cc3nc(-c4cccc5[nH]ncc45)nc(N4CCOCC4)c3s2)CC1 [Pictilisib (dimethanesulfonate)] 0, N#CCNC(=O)c1ccc(-c2ccnc(Nc3ccc(N4CCOCC4)cc3)n2)cc1 [Momelotinib sulfate] 0, C[C@H](CCC(=O)NCCS(=O)(=O)O)[C@H]1CC[C@H]2[C@@H]3[C@@H](O)C[C@@H]4C[C@H](O)CC[C@]4(C)[C@H]3CC[C@]12C [Tauroursodeoxycholate (sodium)] 0, CN(C)C(=N)NC(=N)N [Metformin (hydrochloride)] 0, C/C=C1\C(=O)C[C@H]2[C@@H]3CCC4=CC(=O)CC[C@]4(C)[C@H]3CC[C@]12C [Guggulsterone] 0, Cn1cc(-c2cnc3ccc4ccc(CS(=O)(=O)NCc5ccccn5)cc4c(=O)c3c2)cn1 [MK-8033 (hydrochloride)] 0, C/C=C1\C(=O)C[C@H]2[C@@H]3CCC4=CC(=O)CC[C@]4(C)[C@H]3CC[C@]12C [(Z)-Guggulsterone] 0, COc1cc2c(-c3cnn4cc(N5CCC(N6CCN(C)CC6)CC5)cnc34)ccnc2cc1F 0

molecular target: EGFR_L718V (UniProt P00533); test: as above; conditions: 2.5 µM; K562; 2-18 h

kinase-Nluc reporter destabilization hit call, inactive:
C[C@H](Nc1cc(-c2cnn(C)c2)cc(Nc2cnccn2)n1)c1ccc(F)cc1 [Ilginatinib hydrochloride] 0, Cc1cccc(/C=N/Nc2cc(N3CCOCC3)nc(OCCc3ccccn3)n2)c1 [Apilimod] 0, Cc1ccc(NC(=O)c2ccc(CN3CCN(C)CC3)cc2)cc1Nc1nc(-c2cccnc2)cs1 [Masitinib (mesylate)] 0, COc1cc2nccc(Oc3ccc(NC(=O)C4(C(=O)Nc5ccc(F)cc5)CC4)cc3)c2cc1OC [Cabozantinib] 0, Cc1cccc(-c2[nH]c(CNc3ccccc3F)nc2-c2ccc3ncnn3c2)n1 [Vactosertib (Hydrochloride)] 0, CC(C)Oc1ccc(-c2nn([C@@H](C)c3oc4ccc(F)cc4c(=O)c3-c3cccc(F)c3)c3ncnc(N)c23)cc1F [Umbralisib (hydrochloride)] 0, CN(C)C(=O)c1cc2cnc(Nc3ccc(N4CCNCC4)cn3)nc2n1C1CCCC1 [Ribociclib succinate hydrate] 0, O=C(Nc1ccncc1)Nc1ccc(-c2nc(N3CCOCC3)nc(N3C4CCC3COC4)n2)cc1 [PKI-179 (hydrochloride)] 0, C=CC(=O)Nc1cc(Nc2nccc(-c3cn(C4CC4)c4ccccc34)n2)c(OC)cc1N(C)CCN(C)C [Almonertinib (hydrochloride)] 0, C=CC(=O)Nc1cc2c(Nc3ccc(F)c(Cl)c3)ncnc2cc1C#CC(C)(C)N1CCN(C)CC1 [AV-412 (free base)] 0, CNC(=O)c1cc(Oc2ccc(NC(=O)Nc3ccc(Cl)c(C(F)(F)F)c3)c(F)c2)ccn1 [Regorafenib] 0
